# PubChem BioAssay AID1259331 | Drosophila RNAi Screening Center, 2017
# Purpose: 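Genes whose knock-down changes cell survival under toxic zinc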 (primary screen)
# Cell system: Drosophila S2R+ cells
# Reagents: long dsRNA against Drosophila genes
# Timing: 5 days (4 days knock-down, then 1 day zinc)
# Challenge: zinc chloride at 15 mM final level for 1 day
# Measurement: 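Luminescent ATP assay standing in for viability; Z score is the mean over three replicate plates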
# Direction: mean Z score: higher = more ATP than other wells, better survival under zinc; ATP luminescence: higher = more ATP, more viable cells
# Rule for the call: 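Hit when the absolute Z score is greater than 1.5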
# Meaning of the calls: active = hit, ATP up or down; inactive = not a hit
# This is an unselected part of about 3,100 reagents tested. 126 of them (4.1%) were called active. 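Calls are per reagent; zinc was so toxic that few knock-downs lowered ATP further, so most hits raise ATP.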 Raw values are not corrected between plates. Entries without a mark were called inactive. A plus sign joins genes that one reagent is predicted to hit. The record does not give: the amount of reagent.
gene,DRSC id,mean Z score,"ATP luminescence, replicate 1","ATP luminescence, replicate 2"
Gr9a (Gustatory receptor 9a),DRSC22506,0.259,56482,64010
Gr9a (Gustatory receptor 9a),DRSC39581,-0.115,61227,57185
CG13920,DRSC08389,-0.602,26822,25760
CG13920,DRSC39516,-0.184,50721,47377
rho (rhomboid),DRSC08734,0.0187,69361,74558
rho (rhomboid),DRSC39615,-0.447,53824,48749
Stt3B,DRSC16781,0.491,39165,62415
Stt3B,DRSC39644,-0.259,61369,55813
CG6149,DRSC10593,-0.321,70235,57694
PGRP-LB (Peptidoglycan recognition protein LB),DRSC14926,0.0119,45783,45903
PGRP-LB (Peptidoglycan recognition protein LB),DRSC39813,0.136,56379,59997
tipE (temperature-induced paralytic E),DRSC08738,-0.307,27076,31560
tipE (temperature-induced paralytic E),DRSC29985,0.0258,48337,49572
NPFR (Neuropeptide F receptor),DRSC12173,-0.462,50921,63153
"Itpr (Inositol 1,4,5,-trisphosphate receptor)",DRSC12354,-0.25,69653,57373
"Itpr (Inositol 1,4,5,-trisphosphate receptor)",DRSC28770,0.4,68624,66463
Or45a (Odorant receptor 45a),DRSC07487,-0.201,93170,70547
Or45a (Odorant receptor 45a),DRSC27527,-0.333,47566,62913
NLaz (Neural Lazarillo),DRSC21521,0.477,51852,56117
Cngl (Cyclic nucleotide-gated ion channel-like),DRSC20318,2.18 (active),91858,1.13e5
Cngl (Cyclic nucleotide-gated ion channel-like),DRSC23577,0.341,59997,60632
sip3 (septin interacting protein 3),DRSC29484,-0.379,54647,56482
sip3 (septin interacting protein 3),DRSC39765,-0.255,49435,56019
CG3652,DRSC00624,0.47,58797,47480
CG6901,DRSC16129,0.0408,34850,58969
CG6901,DRSC26477,-0.165,71265,48732
CG7384,DRSC03053,-0.218,52401,53944
CG11737,DRSC14364,-0.146,37240,58300
Scgalpha (Sarcoglycan alpha),DRSC03076,-0.0169,46828,45800
Scgalpha (Sarcoglycan alpha),DRSC29625,-0.221,67715,48080
"Sr-CI (Scavenger receptor class C, type I)",DRSC00790,0.739,64519,44720
"Sr-CI (Scavenger receptor class C, type I)",DRSC23942,0.509,61095,66823
CG13223,DRSC06344,-0.0404,72470,68401
CG13223,DRSC39714,-0.458,58951,45680
fz2 (frizzled 2),DRSC10087,-0.396,27318,29736
fz2 (frizzled 2),DRSC11349,-0.238,73031,54579
Srg2 (Sting-regulated gene 2),DRSC10681,-0.126,30816,32462
Srg2 (Sting-regulated gene 2),DRSC24667,-0.00532,58883,52497

A few values from above.
CG7384 [DRSC03053], ATP luminescence, replicate 1 = 52401
Value of Scgalpha (Sarcoglycan alpha) [DRSC03076] under “mean Z score”: -0.0169
For “ATP luminescence, replicate 2”, rho (rhomboid) [DRSC08734] has 74558
Under “ATP luminescence, replicate 1”, Or45a (Odorant receptor 45a) [DRSC27527] shows 47566
Cngl (Cyclic nucleotide-gated ion channel-like) [DRSC20318], ATP luminescence, replicate 1: 91858 (active)
For “ATP luminescence, replicate 1”, PGRP-LB (Peptidoglycan recognition protein LB) [DRSC39813] has 56379

Additional results:
gene,DRSC id,mean Z score,"ATP luminescence, replicate 1","ATP luminescence, replicate 2"
Ranbp16,DRSC20160,-0.0876,64148,65056
CG31213,DRSC14312,-0.277,38521,42693
CG31213,DRSC15647,-0.126,34502,54767
CG17167,DRSC20902,0.0617,41531,47137
CG17167,DRSC20903,0.386,47700,45234
Loxl1 (Lysyl oxidase-like 1),DRSC14303,0.321,71059,71690
Eaat2 (Excitatory amino acid transporter 2),DRSC00032,-0.0366,39319,44874
Eaat2 (Excitatory amino acid transporter 2),DRSC00749,0.00775,54990,57751
Eaat2 (Excitatory amino acid transporter 2),DRSC26070,-0.65,41258,41822
E23 (Early gene at 23),DRSC00593,0.129,53687,39868
E23 (Early gene at 23),DRSC25491,-0.314,53824,46194
sing + Axs,DRSC19333,-0.318,42131,41431
sing + Axs,DRSC39847,-0.135,48063,60958
emb (embargoed),DRSC03528,0.555,57905,70579
mys (myospheroid),DRSC18799,-0.615,55865,55830
mys (myospheroid),DRSC29061,-0.167,58180,59466
SP1173,DRSC11277,-0.566,25708,28176
Or85c (Odorant receptor 85c),DRSC16766,-0.176,36842,54339
Or85c (Odorant receptor 85c),DRSC39833,-0.0747,54424,55951
sesB (stress-sensitive B),DRSC20371,-0.488,59374,56516
sesB (stress-sensitive B),DRSC29874,-0.559,40571,43228
CG32983,DRSC22367,-0.289,48200,56345
tank,DRSC00461,-0.335,47319,39319
ZnT35C (Zinc transporter 35C),DRSC01959,-0.178,45028,44998
ZnT35C (Zinc transporter 35C),DRSC39419,0.324,54645,52247
wls (wntless),DRSC10605,-0.316,31930,26051
wls (wntless),DRSC29313,-0.505,53430,53790
VhaAC45RP (VhaAC45-related protein),DRSC15423,1.09,69664,41753
VhaAC45RP (VhaAC45-related protein),DRSC26986,0.422,64848,64172
Cad74A (Cadherin 74A),DRSC10636,0.301,81402,66892
Ir85a (Ionotropic receptor 85a),DRSC14382,1.27,45680,65897
Ir85a (Ionotropic receptor 85a),DRSC29077,0.265,65914,65022
"mAChR-B (muscarinic Acetylcholine Receptor, B-type)",DRSC16345,-0.921,30405,39422
"mAChR-B (muscarinic Acetylcholine Receptor, B-type)",DRSC26738,-0.621,37450,55529
CG9304,DRSC04538,-0.417,43976,35033
CG9304,DRSC26210,0.1,57785,56105
rst (roughest),DRSC17243,-0.42,70544,53121
rst (roughest),DRSC18828,-0.586,53138,59586
rst (roughest),DRSC39453,0.378,55676,56083
Vha16-4 (Vacuolar H[+] ATPase 16kD subunit 4),DRSC07321,-0.0727,68932,72088
Or92a (Odorant receptor 92a),DRSC16771,-0.213,41942,55539
Yip1d1 (Yip1 domain-containing 1),DRSC02166,-0.632,42285,36634
VhaPPA1-1 (Vacuolar H[+] ATPase PPA1 subunit 1),DRSC16170,0.65,52384,57538
VhaPPA1-1 (Vacuolar H[+] ATPase PPA1 subunit 1),DRSC24144,1.72 (active),80544,76102
hbt + CG43779,DRSC23270,-0.072,46657,47665
hbt + CG43779,DRSC39693,-0.436,54818,50069
CG14731,DRSC14952,-0.402,39054,49761
CG14731,DRSC39683,0.11,65571,53756
Stim (Stromal interaction molecule),DRSC20158,-0.744,34868,39079
Stim (Stromal interaction molecule),DRSC39682,-0.0545,56173,60255
